This data set can be described thus: general procedure: Boc solid-phase peptide synthesis; Boc-Arg(Tos) Merrifield resin; benzhydrylamine (BHA) resin; 4-methylbenzhydrylamine (MBHA) resin; DCC/HBT; DCC/DMAP for Pmp; preformed Boc symmetrical anhydrides.

Strings that start with PEPTIDE1 are HELM notation: dots part the residues, brackets hold end groups and non-standard residues.

For the setting “whole synthesis”, “PEPTIDE1{[Pmp].[D-Tyr(Et)].F.V.N.C.P.R.[am]}$PEPTIDE1,PEPTIDE1,1:R3-6:R3$$$V2.0” yielded a crude yield of 76% and an isolated yield of 55%.

Substance “PEPTIDE1{[Pmp].[dY].F.V.N.C.P.R}$PEPTIDE1,PEPTIDE1,1:R3-6:R3$$$V2.0” gave a step yield (coupling step) of 45%.

With “Pmp(4-MeBzl)-D-Tyr(Et)-Phe(4'-Et)-Val-Asn-Cys-(4-MeBzl)-Pro-Arg(Tos)-BHA-resin”, under “whole synthesis”, the crude yield is listed as 42.7%.

Source of the values: patent US4587045A (SmithKline Beckman Corporation, priority 1985, dated 1986).
